# According to PubChem BioAssay AID485318 (Broad Institute, 2010):
# The chains behind the UniProt entries cited, without tags or fusion partners. Where a name states a change or a piece, a line headed by the entry shows the natural chain unless it says otherwise.
# UniProt O15379: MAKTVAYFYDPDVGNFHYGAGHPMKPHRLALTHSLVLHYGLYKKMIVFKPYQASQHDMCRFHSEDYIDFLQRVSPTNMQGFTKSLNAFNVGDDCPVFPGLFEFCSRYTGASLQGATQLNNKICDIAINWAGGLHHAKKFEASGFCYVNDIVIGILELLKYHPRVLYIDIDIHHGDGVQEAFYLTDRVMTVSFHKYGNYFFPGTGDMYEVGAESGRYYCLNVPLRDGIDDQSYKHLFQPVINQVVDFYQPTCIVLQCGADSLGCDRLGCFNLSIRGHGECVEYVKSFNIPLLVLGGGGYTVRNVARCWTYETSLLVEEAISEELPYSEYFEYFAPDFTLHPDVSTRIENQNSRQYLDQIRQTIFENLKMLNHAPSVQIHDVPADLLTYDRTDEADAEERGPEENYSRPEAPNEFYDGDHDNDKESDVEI
# In all, about 1,400 compounds went through this assay and fewer than 10 were called active.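 The calls were made as follows: active = fluorescence-lowering compounds whose fitted half-maximal concentration is at or below ten times the highest valid dose tested; inconclusive = flat curve at 30 to 70% inhibition, or poor fit; inactive = the rest.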 The list shows a part of the results.
# Biological target: Histone deacetylase 3 (Homo sapiens) (UniProt O15379)
# Assay: HDAC3 deacetylase inhibitors, dose response, counter-screen for JMJD2C/GASC1 demethylase inhibitor project, biochemical, fluorescence, cherry-picked samples (AID 485318);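 also: enzyme preincubated with compound before substrate and trypsin were added; 0% = neutral control wells and -100% = SAHA positive control wells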
# Settings: recombinant HDAC3, fluorogenic peptide/trypsin coupled; at 12 µM (top of the series)
row,SMILES,"activity change, negative = inhibition"
1,CCc1ccc(N2C(=O)NC(=O)/C(=C\c3cc(C)n(-c4cc(C(=O)O)cc(C(=O)O)c4)c3C)C2=O)cc1,inactive: -1.7%
2,Cn1ncnc2c(=O)n(C)c(=O)nc1-2,inactive: -0.0129%
3,CC1(C)OC(c2ccccc2)=C/C(=C/C=C2C(=O)NC(=S)NC2=O)O1,inactive: 0.571%
4,C=CCn1c(O)c(/C(C)=N/NC(=S)Nc2ccccc2)c(=O)[nH]c1=O,inactive: 0.842%
5,CCC(=NCC1CCCO1)c1c(O)[nH]c(=O)[nH]c1=O (centres undefined),inactive: -0.00937%
6,COc1ccc(OC)c(N2C(=O)/C(=C/c3ccco3)C(=O)NC2=S)c1,inactive: 0.0554%
7,CCOc1cc(C=C2C(=O)NC(=O)NC2=O)cc([N+](=O)[O-])c1O,inactive: 0.274%
8,Cc1cccc(N2C(=O)NC(=O)/C(=C\c3cnc(-c4ccccc4)nc3)C2=O)c1,inactive: 0.427%
9,CN(C)c1ccc(/C=C2/C(=O)NC(=O)N(Cc3ccco3)C2=O)cc1,inactive: 0.691%
10,COc1ccc(/C=C2/C(=O)NC(=O)N(C3CCCCC3)C2=O)cc1CSc1ccccn1,inactive: 0.021%
11,COc1ccc(CC2C(=O)NC(=O)N(c3ccccc3)C2=O)c(OC)c1 (centres undefined),inactive: 0.0457%
12,COc1cc(CC2C(=O)N(C)C(=O)N(C)C2=O)ccc1OCc1ccccc1,inactive: -0.256%
13,CC(C)Oc1ccc(Cc2c(O)[nH]c(=O)[nH]c2=O)cc1,inactive: -0.759%
14,CCOC(=O)/C(=N\Nc1ccccc1)N1CC1,inactive: 1.12%
15,COc1ccc(N2C(=O)NC(=O)/C(=C/c3cccc(OC(=O)c4cccs4)c3)C2=O)cc1Cl,inactive: 0.566%
16,O=C1NC(=O)C(Sc2ccccc2[N+](=O)[O-])C(=O)N1,inactive: 1.15%
17,CC1C(c2cccs2)=[N+]([O-])C(C)(C(=O)c2ccc(Cl)cc2)N1O (centres undefined),inactive: 0.334%
18,O=C1NC(=O)N(Cc2ccccc2)C(=O)/C1=C/C=C/c1ccco1,inactive: -0.152%
19,c1ccc2c3c(ccc2c1)OCC1CONC31 (centres undefined),inactive: -0.24%
20,Cc1nc2c(=O)n(C)c(=O)nc-2n(C)n1,inactive: -0.0871%
21,Cc1cc(C=C2C(=O)NC(=S)NC2=O)c(C)n1-c1ccc2c(c1)OCO2,inactive: 0.553%
22,O=C1NC(=O)C(=Cc2csc3ccccc23)C(=O)N1,inactive: -0.693%
23,C=CCN1C(=O)NC(=O)/C(=C/c2ccc(OC)c(CSc3ccccn3)c2)C1=O,inactive: -0.106%

# 3 entries already listed, arranged by molecular weight, low to high.
row,SMILES,"activity change, negative = inhibition"
13,CC(C)Oc1ccc(Cc2c(O)[nH]c(=O)[nH]c2=O)cc1,inactive: -0.759%
11,COc1ccc(CC2C(=O)NC(=O)N(c3ccccc3)C2=O)c(OC)c1 (centres undefined),inactive: 0.0457%
4,C=CCn1c(O)c(/C(C)=N/NC(=S)Nc2ccccc2)c(=O)[nH]c1=O,inactive: 0.842%

# Next entries:

row,SMILES,"activity change, negative = inhibition"
1,COC(=O)C1=C(c2ccc(OCc3ccccc3)cc2)C[C@@H]2CC[C@H]1N2C(=O)NCc1ccc([N+](=O)[O-])cc1,inactive: -0.185%
2,CCN1CCN(c2ccc([N+](=O)[O-])cc2C=C2C(=O)NC(=O)NC2=O)CC1,inactive: 0.372%
3,C=CCN1C(=O)NC(=O)/C(=C/c2ccoc2)C1=O,inactive: -0.856%
4,CN1CCN(c2nc3ccccn3c(=O)c2C=C2C(=O)N(C)C(=O)N(C)C2=O)CC1,inactive: 0.276%
5,Cc1ccc2nc3c(cc2c1)CC1(C(=O)N(C)C(=O)N(C)C1=O)C1CCCCN31 (centres undefined),inactive: 0.213%
6,COc1cc(Br)cc(CN2CCN(C)CC2)c1O,inactive: -0.0342%
7,O=C1NC(=O)C(=Cc2ccc(Sc3ccccc3)o2)C(=O)N1,inactive: 0.579%
8,Cc1cccc(N2C(=O)NC(=O)/C(=C/c3ccc([N+](=O)[O-])o3)C2=O)c1,inactive: -0.172%
9,CCN1C(=O)NC(=O)/C(=C\c2cn(CC(=O)N3CCCCC3)c3ccccc23)C1=O,inactive: 0.455%
10,O=P(OCC(F)(F)C(F)F)(N1CCCCC1)N1CCCCC1,inactive: -8.65%
11,NCC(O)c1cc(O)c(O)cc1F (centres undefined),inactive: 0.348%
12,O=C1NC(=S)N(C2CC2)C(=O)/C1=C/c1ccc2c(c1)CCN2CCCCl,inactive: 1.19%
13,CN1C(=O)C(Cc2ccc(OCc3ccccc3)cc2)C(=O)N(C)C1=O,inactive: 0.665%
14,CN1C(=O)N(C)C(=O)C2(Sc3ccccc3C2=O)C1=O,inactive: -0.135%
15,O=C1NC(=S)NC(=O)C1C1CCCCC1,inactive: -0.34%
16,CC(=NCc1ccc(F)cc1)c1c(O)n(C)c(=O)n(C)c1=O,inactive: -0.161%
17,Cc1[nH]c2ccc(OC(F)(F)F)cc2c1CCNCc1cccc([N+](=O)[O-])c1,inactive: 0.899%
18,Cc1cc(C)cc(OCCOc2cccc(C=C3C(=O)NC(=O)NC3=O)c2)c1,inactive: 0.219%
19,N/C(=N\[N+](=O)[O-])N1CCN(C(=O)c2ccccc2)CC1,inactive: 0.341%
20,CN1C(=O)N(C)C(=O)C2(Cc3ccccc3N3CCCC32)C1=O (centres undefined),inactive: 0.633%
21,Cc1ccc2[nH]c(=S)n(-c3cccnc3)c(=O)c2c1,inactive: 1.15%
22,COCc1cc(OC(=O)N(C)C)nc2c1c(C)nn2C,inactive: 0.491%
23,CCN1C(=O)C(=C/C=C/c2ccco2)C(=O)N(CC)C1=S,inactive: -0.423%

# A second format for some results above.
row	SMILES	activity change, negative = inhibition
6	COc1cc(Br)cc(CN2CCN(C)CC2)c1O	inactive: -0.0342%
11	NCC(O)c1cc(O)c(O)cc1F (centres undefined)	inactive: 0.348%

# Next results follow.

row,SMILES,"activity change, negative = inhibition"
1,CN(C)c1ccc(/C=C2\C(=O)NC(=O)N(CCc3ccc(F)cc3)C2=O)cc1,inactive: 0.301%
2,CCN(CC)c1ccc(/C=C2\C(=O)NC(=O)N(CC3CCCO3)C2=O)cc1 (centres undefined),inactive: 0.231%
3,C[C@@H]1CCC2[C@@H](C)C(=O)O[C@@H]3OC4(C)CCC1[C@@]23OO4 (some centres undefined),inactive: 0.176%
4,O=C1NC(=O)C(C(CC(=O)c2ccccc2)c2ccccc2)C(=O)N1 (centres undefined),inactive: -0.623%
5,CCCCCSc1cc(O)c(C(CNC)C(C)C)cc1OC (centres undefined),inactive: 0.059%
6,CC(C)(C)[C@]1(O)C[C@@H]2OC(=O)C[C@@]23C(=O)O[C@@H]2OC(=O)[C@@H](O)C213 (some centres undefined),inactive: -0.801%
7,Cc1sc2c(c1C)C(c1ccc(C(C)(C)C)cc1)=NCC(=O)N2CC(=O)Nc1nccs1,inactive: 1.43%
8,O=C(c1cccs1)N1C2CCC1CC(O)(c1cccnc1)C2 (centres undefined),inactive: 0.482%
9,C=CCn1c(C)c(C=C2C(=O)NC(=O)NC2=O)c2ccccc21,inactive: -0.0299%
10,COc1cccc(N2C(=O)NC(=O)/C(=C/c3ccc4c(c3)Cc3ccccc3-4)C2=O)c1,inactive: 0.465%
11,CN(C)[C@@H]1C(=O)C(C(N)=O)=C(O)[C@@]2(O)C(=O)C3=C(O)c4c(O)cccc4[C@@](C)(O)C3C[C@@H]12 (some centres undefined),inactive: 0.269%
12,CN1C(=O)C(Cc2ccsc2)C(=O)N(C)C1=O,inactive: 0.433%
13,N#CC(C#N)=Cc1ccc(O)c(O)c1,inactive: 0.633%
14,CCOC(=O)C1=CC(=C2C(=O)N(CC)C(=S)N(CC)C2=O)c2ccccc2O1,inactive: 0.0133%
15,C=CCC1C(=O)NC(=S)NC1=O,inactive: -0.29%
16,O=C1NC(=O)N(Cc2ccc(F)cc2)C(=O)/C1=C\C=C\c1ccco1,inactive: -0.446%
17,CCCCOc1ccc(CC2C(=O)N(C)C(=O)N(C)C2=O)cc1,inactive: -0.273%
18,CN1CCN(c2ccc(C=O)cc2)CC1,inactive: -0.0296%
19,Cc1ccc2c(c1)=C/C(=C\c1c(O)[nH]c(=O)[nH]c1=O)C(=O)N=2,inactive: 0.967%
20,O=C(N=Nc1c(O)[nH]c(=O)[nH]c1=O)C1COc2ccccc2O1 (centres undefined),inactive: 0.00951%
21,CC1(C)CC(=O)C(C2(O)C(=O)NC(=O)NC2=O)=C(O)C1,inactive: 0.491%
22,CN1C(=O)C(=Cc2ccc(N3CCCCCC3)cc2)C(=O)N(C)C1=O,inactive: 0.121%
23,Cc1cccc(N2C(=O)NC(=O)/C(=C/c3ccc(N4CCOCC4)cc3)C2=O)c1,inactive: -0.336%
